Assay results reported in article PMC10847507.
No constants are given. Whether binding was seen depends on the method and setting. In cells and extracts the contact can be indirect. Some entries that bind do so weakly or less than the wild type.

Chains of the proteins cited; added tags and fusions are not shown. Residues count along the entry.
UniProt P35968, residues 20-1356: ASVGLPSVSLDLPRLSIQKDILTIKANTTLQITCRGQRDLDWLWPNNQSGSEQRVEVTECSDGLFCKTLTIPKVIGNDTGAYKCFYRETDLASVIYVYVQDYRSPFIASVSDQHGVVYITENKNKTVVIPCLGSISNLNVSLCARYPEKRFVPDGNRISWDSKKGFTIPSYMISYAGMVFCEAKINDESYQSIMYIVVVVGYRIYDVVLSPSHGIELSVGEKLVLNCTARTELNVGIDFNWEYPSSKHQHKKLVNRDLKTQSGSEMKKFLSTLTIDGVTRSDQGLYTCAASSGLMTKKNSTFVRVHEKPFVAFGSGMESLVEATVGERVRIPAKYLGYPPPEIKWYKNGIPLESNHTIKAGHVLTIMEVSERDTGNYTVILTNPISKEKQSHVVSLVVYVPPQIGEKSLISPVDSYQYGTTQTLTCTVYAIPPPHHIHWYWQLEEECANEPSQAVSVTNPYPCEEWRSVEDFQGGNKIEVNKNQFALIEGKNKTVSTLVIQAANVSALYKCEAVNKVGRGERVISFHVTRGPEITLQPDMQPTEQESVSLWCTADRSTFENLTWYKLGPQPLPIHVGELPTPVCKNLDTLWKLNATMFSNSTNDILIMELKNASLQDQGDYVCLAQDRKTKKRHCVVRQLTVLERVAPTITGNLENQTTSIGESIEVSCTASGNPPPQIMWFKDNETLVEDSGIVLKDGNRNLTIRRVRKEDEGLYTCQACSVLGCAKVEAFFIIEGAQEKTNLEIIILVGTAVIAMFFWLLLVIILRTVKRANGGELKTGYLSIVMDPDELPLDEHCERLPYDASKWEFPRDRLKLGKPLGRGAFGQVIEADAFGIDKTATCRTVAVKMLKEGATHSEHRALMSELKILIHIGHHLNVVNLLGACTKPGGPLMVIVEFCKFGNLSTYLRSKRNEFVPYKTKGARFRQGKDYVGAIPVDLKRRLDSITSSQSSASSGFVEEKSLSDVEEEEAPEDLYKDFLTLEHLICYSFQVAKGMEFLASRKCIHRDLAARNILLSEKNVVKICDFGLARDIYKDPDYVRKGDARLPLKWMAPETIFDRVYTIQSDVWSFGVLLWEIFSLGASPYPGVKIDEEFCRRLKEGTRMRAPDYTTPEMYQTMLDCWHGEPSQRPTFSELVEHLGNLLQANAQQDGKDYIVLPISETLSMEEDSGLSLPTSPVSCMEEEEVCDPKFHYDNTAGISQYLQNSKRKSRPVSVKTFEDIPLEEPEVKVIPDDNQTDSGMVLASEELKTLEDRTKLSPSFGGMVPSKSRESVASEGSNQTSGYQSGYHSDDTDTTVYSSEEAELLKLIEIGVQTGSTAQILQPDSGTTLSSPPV
UniProt P35918, residues 20-1345: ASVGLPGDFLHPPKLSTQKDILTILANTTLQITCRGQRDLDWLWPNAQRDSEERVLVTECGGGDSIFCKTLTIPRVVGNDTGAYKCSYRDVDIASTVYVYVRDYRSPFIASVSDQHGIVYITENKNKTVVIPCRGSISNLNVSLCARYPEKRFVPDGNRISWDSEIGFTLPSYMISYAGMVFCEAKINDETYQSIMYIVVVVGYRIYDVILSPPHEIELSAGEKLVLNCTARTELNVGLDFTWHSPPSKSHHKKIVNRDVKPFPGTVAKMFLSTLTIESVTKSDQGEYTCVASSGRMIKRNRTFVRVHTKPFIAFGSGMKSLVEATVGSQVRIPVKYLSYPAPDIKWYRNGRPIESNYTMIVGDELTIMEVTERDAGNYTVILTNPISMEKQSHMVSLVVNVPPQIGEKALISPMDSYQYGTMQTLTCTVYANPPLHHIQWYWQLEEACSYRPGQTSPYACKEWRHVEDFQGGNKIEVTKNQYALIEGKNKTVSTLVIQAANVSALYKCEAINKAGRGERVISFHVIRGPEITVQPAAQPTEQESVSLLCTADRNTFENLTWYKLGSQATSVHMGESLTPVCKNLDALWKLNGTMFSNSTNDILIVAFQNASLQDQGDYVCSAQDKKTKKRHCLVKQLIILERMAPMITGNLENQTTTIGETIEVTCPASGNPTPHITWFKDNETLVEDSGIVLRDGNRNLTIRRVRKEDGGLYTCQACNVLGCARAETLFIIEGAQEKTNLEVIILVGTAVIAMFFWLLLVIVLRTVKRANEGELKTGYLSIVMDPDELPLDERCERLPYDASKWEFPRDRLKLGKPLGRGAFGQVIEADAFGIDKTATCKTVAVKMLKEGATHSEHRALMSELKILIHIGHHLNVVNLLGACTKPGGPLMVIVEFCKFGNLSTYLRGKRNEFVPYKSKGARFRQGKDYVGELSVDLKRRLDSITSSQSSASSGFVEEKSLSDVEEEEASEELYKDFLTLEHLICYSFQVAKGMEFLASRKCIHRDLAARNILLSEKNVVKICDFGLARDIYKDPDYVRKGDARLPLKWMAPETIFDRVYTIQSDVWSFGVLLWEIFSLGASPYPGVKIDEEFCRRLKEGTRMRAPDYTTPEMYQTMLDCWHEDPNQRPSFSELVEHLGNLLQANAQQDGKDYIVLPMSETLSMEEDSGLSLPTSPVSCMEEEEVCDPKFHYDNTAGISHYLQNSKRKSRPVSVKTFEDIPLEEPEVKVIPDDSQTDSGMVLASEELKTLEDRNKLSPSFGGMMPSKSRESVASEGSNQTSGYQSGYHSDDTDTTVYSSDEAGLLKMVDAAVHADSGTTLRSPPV

Key:
[1] = target: VEGFR2 (human (endogenous in MDA-MB-468)) (UniProt P35968); assay: proximity ligation; Duolink PLA on cells fixed in 4% formaldehyde and permeabilised with 0.1% Triton X-100; Control, ID4-KO and ID4-KO cells treated with recombinant VEGFA (20 ng/mL) for 24 h; mean fluorescence intensity of 40 cells per condition
[2] = target: VEGFR2 (mouse (endogenous in M6)) (UniProt P35918); assay: as above

- binding [1]: binds
- binding [2]: binds
B1: integrin β3 (receptor, UniProt O54890 26-787)
chain: ESNICTTRGVNSCQQCLAVSPVCAWCSDETLSQGSPRCNLKENLLKDNCAPESIEFPVSEAQILEARPLSSKGSGSSAQITQVSPQRIALRLRPDDSKIFSLQVRQVEDYPVDIYYLMDLSFSMKDDLSSIQTLGTKLASQMRKLTSNLRIGFGAFVDKPVSPYMYISPPQAIKNPCYNMKNACLPMFGYKHVLTLTDQVSRFNEEVKKQSVSRNRDAPEGGFDAIMQATVCDEKIGWRNDASHLLVFTTDAKTHIALDGRLAGIVLPNDGHCHIGTDNHYSASTTMDYPSLGLMTEKLSQKNINLIFAVTENVVSLYQNYSELIPGTTVGVLSDDSSNVLQLIVDAYGKIRSKVELEVRDLPEELSLSFNATCLNNEVIPGLKSCVGLKIGDTVSFSIEAKVRGCPQEKEQSFTIKPVGFKDSLTVQVTFDCDCACQAFAQPSSPRCNNGNGTFECGVCRCDQGWLGSMCECSEEDYRPSQQEECSPKEGQPICSQRGECLCGQCVCHSSDFGKITGKYCECDDFSCVRYKGEMCSGHGQCNCGDCVCDSDWTGYYCNCTTRTDTCMSTNGLLCSGRGNCECGSCVCVQPGSYGDTCEKCPTCPDACSFKKECVECKKFNRGTLHEENTCSRYCRDDIEQVKELTDTGKNAVNCTYKNEDDCVVRFQYYEDTSGRAVLYVVEEPECPKGPDILVVLLSVMGAILLIGLATLLIWKLLITIHDRKEFAKFEEERARAKWDTANNPLYKEATSTFTNITYRGT
